# Laboratory results reported in PubChem BioAssay AID445 (National Center for Advancing Translational Sciences (NCATS), 2006).
# The other results are listed elsewhere or left out. Shown are side measurements of this screen, not its main read-out; they come without a call. Most of these compounds were active or inconclusive in the main read-out, so they are no random draw. Potencies come from curve fits of mixed quality, noted in brackets.
# Test: IkB Signaling
# Conditions: ABC-DLBCL IkBa-CBG/CBR dual luciferase ratio (green luciferase fused to IkBa over red control in OCI-Ly3 lymphoma cells), 4 h; measured here: control luc red channel unless noted
# In short: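 Curves were fitted separately to fusion (green), unfused (red) and ratio luminescence, then classed by r2, magnitude and activity. Cells: OCI-Ly3, 4 h compound plus doxycycline at 37C; 10 uM MG-132 defined full response.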
row,SMILES,AC50
1,CCC(C)NC(=O)CSCc1nc(-c2ccc(C)cc2)oc1C (centres undefined),"25.1 µM [falling, single point]"
2,Cc1cccc(CC(=O)NCCc2sc3nc(-c4ccc(F)cc4)nn3c2C)c1,"39.8 µM [falling, single point]"
3,COc1ccc(-c2noc(CCC(=O)NCCCN3CCC(Cc4ccccc4)CC3)n2)cc1,"10 µM [falling, partial curve]"
4,N#Cc1ccccc1NC(=O)CSc1nnc(-c2ccccc2O)n1-c1ccccc1,"15.8 µM [falling, partial curve]"
5,Cc1ccn2cc(C(=O)Nc3ccc4c(c3)OCCO4)nc2c1,"25.1 µM [falling, single point]"
6,Cc1ccc(Cl)cc1NC(=O)CSCc1cnn(-c2ccccc2)c1-n1cccc1,"25.1 µM [falling, single point]"
7,CCCCn1c(SCc2ncc(-c3ccccc3)o2)nc2cc(S(N)(=O)=O)ccc21,"7.94 µM [falling, partial curve]"
8,O=C(Cn1c(=O)ccc2cc(S(=O)(=O)N3CCCC3)ccc21)Nc1ccc(Cl)cc1,"20 µM [falling, partial curve]"
9,Cn1nnnc1SCCCNCc1ccccc1OCc1ccc(F)cc1,"25.1 µM [falling, single point]"
10,COc1ccc(CNC(=O)CSc2ncc3c(n2)-c2cc(Cl)ccc2N(C)S3(=O)=O)cc1,"39.8 µM [rising, single point]"
11,CCN1C(=O)c2ccccc2Sc2ccc(NC(=O)c3cccc(C)c3)cc21,"25.1 µM [falling, partial curve]"
12,Cc1ccc(NC(=O)Nc2cccs2)c(C)c1,"1 µM [rising, full curve]"
13,CCOC(=O)c1cc(OC(=O)c2ccccc2OC)n(-c2ccccc2)n1,"25.1 µM [falling, single point]"
14,O=C(c1cccc2ccccc12)N1CCN(CC2CC=CCC2)CC1 (centres undefined),"20 µM [falling, partial curve]"
15,COc1ccc(CCNC(=O)c2ccc3c(c2)N(Cc2cccc(Cl)c2)C(=O)c2ccccc2S3=O)cc1OC (centres undefined),"0.794 µM [rising, full curve, poor fit]"
16,Cc1cc2n(n1)C(c1c[nH]c3ccccc13)Nc1ccccc1-2 (centres undefined),"39.8 µM [falling, single point]"
17,CC(=O)c1ccc(N2C(=O)Nc3ccccc3S2(=O)=O)cc1,"1 µM [rising, full curve, poor fit]"
18,O=C(Cn1c(SCC(=O)Nc2ccc(F)cc2)nc2ccccc21)NCc1ccc(Cl)cc1,"20 µM [falling, partial curve]"
19,CCOc1ccc(C(=O)NCCc2sc(-c3ccc(F)cc3)nc2C)cc1,"0.794 µM [falling, partial curve, poor fit]"
20,CCOC(=O)c1ccc(NC(=O)CN2C(=O)c3cccnc3Sc3ccccc32)cc1,"39.8 µM [falling, single point]"
21,COc1ccc(Nc2ncc(C(=O)N3CCN(c4ccccc4OC)CC3)c3ccccc23)cc1,"7.94 µM [falling, full curve]"
22,Oc1c(C(c2cccs2)N2CCC3(CC2)OCCO3)sc2ncnn12 (centres undefined),"3.16 µM [rising, full curve]"

row,SMILES,AC50
1,Cn1c(SCc2ccccc2Cl)nc(=O)c2c1NC(=O)CC2c1cc(F)ccc1F (centres undefined),"25.1 µM [falling, single point]"
2,CCCC(=O)Nc1ccc(NC(=O)c2ccccn2)cn1,"10 µM [falling, partial curve]"
3,O=C(Cn1cc(S(=O)(=O)c2ccccc2)c(=O)c2cc3c(cc21)OCO3)Nc1ccccc1,"15.8 µM [falling, partial curve]"
4,O=C(NCCCc1ccccc1)c1nn(-c2ccccc2)nc1CO,"39.8 µM [falling, single point]"
5,Cc1nc2nc(SCC(=O)NC3CCC(C)CC3)nn2c(C)c1Cc1ccccc1Cl (centres undefined),"31.6 µM [falling, single point]"
6,CCn1cc2nc(SCc3cccc(C)c3)n(CCc3ccccc3)c(=O)c2n1,"3.98 µM [falling, partial curve]"
7,Cc1nc2c(-c3ccccc3)c(C)nn2c(C)c1CCC(=O)NCc1ccccc1,"31.6 µM [falling, partial curve, poor fit]"
8,Cc1ccc(S(=O)(=O)n2nc(-c3ccco3)nc2NCc2ccc(N(C)C)cc2)cc1,"2.51 µM [falling, partial curve]"
9,CCc1ccc2oc(-c3ccc(C)c(NC(=O)c4ccc(C#N)cc4F)c3)nc2c1,"1.26 µM [falling, full curve]"
10,Cc1cc(NCc2ccc(Cl)cc2)n2cnnc2n1,"15.8 µM [falling, single point]"
11,Cc1cccc(-c2noc(-c3ccc(NCc4cccnc4)c([N+](=O)[O-])c3)n2)c1,"31.6 µM [falling, single point]"
12,O=C(Nc1ccc(F)cc1)c1ccc2c(c1)NC(=O)c1ccccc1S2,"0.0501 µM [falling, full curve]"
13,CS(=O)(=O)Nc1ccccc1C(=O)Nc1cccc(Cl)c1,"12.6 µM [falling, partial curve]"
14,CCOC(=O)CS(=O)(=O)c1nc(-c2ccccc2)cc(C(F)(F)F)n1,"2.51 µM [falling, full curve]"
15,CCC(=O)Nc1cccc(OCc2cc(=O)n3cc(C)ccc3n2)c1,"0.501 µM [falling, partial curve, poor fit]"
16,c1ccc(-c2cn3c4c(sc3n2)CCCC4)cc1,"15.8 µM [falling, partial curve]"
17,CCN(CC)C(=O)COc1ccc(-c2ccccc2)cc1,"12.6 µM [falling, partial curve]"
18,COc1ccc(OC)c(NC(=O)c2c(NCc3ccc(N(C)C)cc3)sc3c2CCCC3)c1,"1.26 µM [rising, full curve]"
19,COc1ccc(NC(=O)c2oc3ccccc3c2NC(=O)C23CC4CC(CC(C4)C2)C3)cc1,"20 µM [falling, partial curve]"
20,O=C(Nc1nc2c(Cl)cccc2s1)c1ccc(Br)o1,"2 µM [falling, full curve]"
21,O=C(NCc1ccccc1Cl)c1ccc(NC(=O)N2CCSc3ccccc32)cc1,"31.6 µM [falling, single point]"
22,COc1ccc(S(=O)(=O)N(CC(=O)Nc2ccc3c(c2)OCO3)c2ccc(C)cc2)cc1,"12.6 µM [falling, partial curve, poor fit]"

row,SMILES,AC50
1,COc1cc(OC)cc(C(=O)Nc2ccc3c(c2)n(C)c(=O)c(=O)n3C)c1,"25.1 µM [falling, single point]"
2,Cc1ccc(Cl)cc1NC(=O)Cn1c(=O)n(Cc2ccccc2)c(=O)c2oc3ccccc3c21,"15.8 µM [falling, single point]"
3,CCn1cc2c(n1)-c1c(oc(C(=O)Nc3cccc(C)c3C)c1C)CC2,"10 µM [falling, single point]"
4,Cc1cc(C)cc(NC(=O)CSc2oc(-c3ccccc3)nc2S(=O)(=O)c2ccccc2)c1,"3.98 µM [falling, full curve]"
5,CCOc1ccc(-c2cc(C(=O)NCc3ccccc3Cl)c3ccccc3n2)cc1,"12.6 µM [rising, partial curve]"
6,Cc1cc(C)cc(NS(=O)(=O)c2ccc3[nH]cc(C(=O)NC4CCCCC4)c(=O)c3c2)c1,"15.8 µM [falling, partial curve]"
7,Cc1ccc(N2CCN(C(=O)c3ccccc3F)CC2)c(C)c1,"12.6 µM [falling, partial curve]"
8,Cc1ccc(NC(=O)CCCn2c(=O)c3cccn3c3ccccc32)cc1C,"12.6 µM [falling, partial curve, poor fit]"
9,CC(C)CC(=O)n1nc(-c2cccnc2)nc1NCc1ccc(F)cc1,"20 µM [falling, single point]"
10,O=C(OCc1cc(=O)n2nc(C3CCCCC3)sc2n1)c1ccccc1Cl,"0.794 µM [rising, full curve]"
11,COCCCNC(=O)c1ccc(-n2c(-c3ccccc3)cc3c2CCCC3)cc1,"10 µM [falling, partial curve]"
12,Cc1ccc(-c2nc(-c3ccccc3)no2)c(Cl)c1,"12.6 µM [falling, partial curve]"
13,COc1ccccc1C(=O)N(Cc1nc(-c2ccc(Cl)cc2)no1)C(C)C,"12.6 µM [falling, partial curve]"
14,O=C(Cn1c(=O)n(-c2cccc(Cl)c2)c(=O)c2sc3ccccc3c21)NC1CCCCC1,"20 µM [falling, single point]"
15,Cc1ccc(OCC(=O)Nc2cccc(-c3nc4ccccc4o3)c2C)cc1C,"31.6 µM [falling, partial curve]"
16,CN(C)C(CNc1nnnn1-c1ccccc1)c1ccco1 (centres undefined),"25.1 µM [rising, single point] [measured here: IkB-luc green channel]"
17,CCN(CC)S(=O)(=O)c1ccc2c(c1)nc(CCC(=O)OCC(=O)N1CCc3ccccc31)n2C,"15.8 µM [falling, partial curve]"
18,O=C(Nc1ccc(S(=O)(=O)Nc2cnc3ccccc3n2)cc1)c1ccc(Br)o1,"12.6 µM [falling, partial curve]"
19,COc1ccccc1NC(=O)c1c(NC(=O)COc2ccccc2)sc2c1CCCCC2,"20 µM [falling, partial curve]"
20,O=C(CSCc1ccc(F)cc1)N1CCN(c2ccc(Cl)cc2)CC1,"31.6 µM [falling, single point]"

# 4 entries drawn at random from the list so far, as already listed:
row,SMILES,AC50
1,COc1cc(OC)cc(C(=O)Nc2ccc3c(c2)n(C)c(=O)c(=O)n3C)c1,"25.1 µM [falling, single point]"
4,Cc1cc(C)cc(NC(=O)CSc2oc(-c3ccccc3)nc2S(=O)(=O)c2ccccc2)c1,"3.98 µM [falling, full curve]"
8,Cc1ccc(NC(=O)CCCn2c(=O)c3cccn3c3ccccc32)cc1C,"12.6 µM [falling, partial curve, poor fit]"
20,O=C(CSCc1ccc(F)cc1)N1CCN(c2ccc(Cl)cc2)CC1,"31.6 µM [falling, single point]"
